In publication PMC5836133, “The intracellular immune receptor Rx1 regulates the DNA-binding activity of a Golden2-like transcription factor”:
For part of these data: A weaker result is weaker than the reference pair of the same experiment. Where a protein sequence is shown, tags need not be part of it. For part of these data: The exact form of at least one protein or probe is not confirmed.

Assays:
[1] = test system: T1, NbGlk1(1-243) (Nicotiana benthamiana); test: FP; conditions: Fluorescence anisotropy: 20 mM Tris-HCl pH 7.4, 140 mM NaCl, 1 mM DTT, 10 nM labelled DNA; temperature not stated. PBM conditions as in cited protocols.; recombinant protein; protein details: His6 (pET14b); label: 6-carboxyfluorescein end label on FA-5; letters put together from the description
T1 sequence (looked up, limits assumed): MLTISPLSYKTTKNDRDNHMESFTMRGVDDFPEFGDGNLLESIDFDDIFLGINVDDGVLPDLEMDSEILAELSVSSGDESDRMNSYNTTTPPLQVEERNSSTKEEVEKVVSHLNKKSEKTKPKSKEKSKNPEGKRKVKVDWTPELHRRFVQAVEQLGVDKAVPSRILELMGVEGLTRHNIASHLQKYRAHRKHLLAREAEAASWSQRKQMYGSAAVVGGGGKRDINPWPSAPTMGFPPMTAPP

[2] = test system: T1, NbGlk1(1-243) (Nicotiana benthamiana); test: fluorescence anisotropy; conditions: Fluorescence anisotropy: 20 mM Tris-HCl pH 7.4, 140 mM NaCl, 1 mM DTT, 10 nM labelled DNA, temperature not stated. PBM conditions as in cited protocols., recombinant protein, protein details: His6 (pET14b), label: 6-carboxyfluorescein end label on FA-5, letters put together from the description
[3] = test system: T2, NbGlk1(83-243) (Nicotiana benthamiana); test: fluorescence anisotropy; conditions: Fluorescence anisotropy: 20 mM Tris-HCl pH 7.4, 140 mM NaCl, 1 mM DTT, 10 nM labelled DNA, temperature not stated. PBM conditions as in cited protocols., recombinant protein, protein details: His6 (pET14b), letters put together from the description
T2 sequence (looked up, limits assumed): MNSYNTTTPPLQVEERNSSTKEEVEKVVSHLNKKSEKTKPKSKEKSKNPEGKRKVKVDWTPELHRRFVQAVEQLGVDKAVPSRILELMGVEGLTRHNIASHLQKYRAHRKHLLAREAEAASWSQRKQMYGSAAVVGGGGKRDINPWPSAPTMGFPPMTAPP

[4] = test system: T3, NbGlk1(83-402) (Nicotiana benthamiana); test: fluorescence anisotropy; conditions: Fluorescence anisotropy: 20 mM Tris-HCl pH 7.4, 140 mM NaCl, 1 mM DTT, 10 nM labelled DNA, temperature not stated. PBM conditions as in cited protocols., recombinant protein, protein details: His6 (pET14b), letters put together from the description
T3 sequence (looked up, limits assumed): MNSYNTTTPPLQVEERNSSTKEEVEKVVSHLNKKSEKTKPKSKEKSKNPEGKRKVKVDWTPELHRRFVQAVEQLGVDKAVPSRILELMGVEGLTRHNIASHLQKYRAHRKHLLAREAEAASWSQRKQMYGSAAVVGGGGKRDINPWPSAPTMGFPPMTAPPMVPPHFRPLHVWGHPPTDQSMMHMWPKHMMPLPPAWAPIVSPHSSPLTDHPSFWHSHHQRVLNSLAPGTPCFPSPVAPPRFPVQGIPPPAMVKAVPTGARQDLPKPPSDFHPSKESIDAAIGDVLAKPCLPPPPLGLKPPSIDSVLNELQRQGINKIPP

[5] = with His6-Rx1(1-144), label: 6-carboxyfluorescein end label on FA-5
[6] = with His6-Rx1(1-489), label: 6-carboxyfluorescein end label on FA-5
[7] = with His6-Rx1(1-144), label: 6-carboxyfluorescein end label on FA-3
[8] = with His6-Rx1(1-489), label: 6-carboxyfluorescein end label on FA-3
[9] = with His6-Rx1(1-144), label: 6-carboxyfluorescein end label on FA-1
[10] = with His6-Rx1(1-489), label: 6-carboxyfluorescein end label on FA-1

Question: Does “CGGATATCCACGGATATCCACGGATATCCACGGATATCCACGGATATCCC (double strand) [GATATC (concatenated GGATATCC; FA-5/FA-6)]” bind [1]?
Answer: binds more weakly

Question: Does “CGGATATCCACGGATATCCACGGATATCCACGGATATCCACGGATATCCC (double strand) [GATATC (concatenated GGATATCC; FA-5/FA-6)]” bind ([2]; with His6-Rx1(1-144))?
Answer: binds more weakly

Question: Does “CGGATATCCACGGATATCCACGGATATCCACGGATATCCACGGATATCCC (double strand) [GATATC (concatenated GGATATCC; FA-5/FA-6)]” bind ([2]; with His6-Rx1(1-489))?
Answer: binds more weakly

Question: And the Kd [3, 5]?
Answer: 400 nM

Question: What about the Kd [3, 6] of the same sequence?
Answer: 500 nM

Question: What about the Kd ([4]; with GST-Rx1(1-144), label: 6-carboxyfluorescein end label on FA-5) of the same sequence?
Answer: 340 nM

Question: And the Kd [4, 5]?
Answer: 300 nM

Question: And the Kd [4, 6]?
Answer: 190 nM

Question: How did the Kd [3, 7] turn out when “CAGATTTCCACAGATTTCCACAGATTTCCACAGATTTCCACAGATTTCCC (double strand) [AGATTT (concatenated AGATTTCC; FA-3/FA-4)]” was run?
Answer: 760 nM

Question: And the Kd [3, 8]?
Answer: 650 nM

Question: And the Kd ([4]; with GST-Rx1(1-144), label: 6-carboxyfluorescein end label on FA-3)?
Answer: 730 nM

Question: And the Kd [4, 7]?
Answer: 460 nM

Question: What about the Kd [4, 8] of the same sequence?
Answer: 340 nM

Question: “CACTGTGACACACTGTGACACACTGTGACACACTGTGACACACTGTGACC (double strand) [No site (FA-1/FA-2)]” was tested. Which Kd [3, 9] did it give?
Answer: 850 nM

Question: What about the Kd [3, 10] of the same sequence?
Answer: 1340 nM

Question: And the Kd ([4]; with GST-Rx1(1-144), label: 6-carboxyfluorescein end label on FA-1)?
Answer: 1990 nM

Question: And the Kd [4, 9]?
Answer: 400 nM

Question: What about the Kd [4, 10] of the same sequence?
Answer: 420 nM
